The other results are listed elsewhere or left out. The exact form of the protein is not confirmed.

This is an account of results in article PMC7862700.

The assay addresses T1, ETS1 (UniProt P14921).
T1 sequence: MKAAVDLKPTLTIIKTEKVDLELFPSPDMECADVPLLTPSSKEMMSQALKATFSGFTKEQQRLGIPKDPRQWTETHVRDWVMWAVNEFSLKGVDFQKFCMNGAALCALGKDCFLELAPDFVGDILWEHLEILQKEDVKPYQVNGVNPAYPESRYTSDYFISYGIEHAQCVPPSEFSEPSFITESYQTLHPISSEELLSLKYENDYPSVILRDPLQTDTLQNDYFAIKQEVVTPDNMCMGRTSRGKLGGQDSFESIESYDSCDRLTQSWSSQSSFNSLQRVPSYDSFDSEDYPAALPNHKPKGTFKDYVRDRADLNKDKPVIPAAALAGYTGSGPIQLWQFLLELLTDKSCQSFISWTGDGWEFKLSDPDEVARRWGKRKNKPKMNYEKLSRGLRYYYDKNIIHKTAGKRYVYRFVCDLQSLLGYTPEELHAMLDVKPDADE
The assay is described as follows: DAPPL (digital affinity profiling via proximity ligation, sequencing). To be noted: 10 mM Tris-HCl pH 7.5, 50 mM NaCl, 1 mM DTT, 4% glycerol, room temperature, 30 min; GST-TFs on glutathione beads, 16-mer random dsDNA library, 0.1% …; high values mean tight binding; double strand, one strand shown; scale: fold enrichment (6-mer frequency, TF over GST control).
The sequence TTTTCC returned a binding signal of 1.77.

Regarding TCAATT, the binding signal came to 1.24.

Sequence CTTTGT yielded a binding signal of 1.13.

In the case of GCTAGT, the binding signal came to 1.06.

CTCTTA gave a binding signal of 1.43.

In turn, CGGAAC showed a binding signal of 1.18.

For ACTGTT, the binding signal came to 1.14.

ATAAGC had a binding signal of 0.987.

The sequence CTTCTT had a binding signal of 1.51.

The sequence CTTTAG gave a binding signal of 1.2.

In the case of TTACTT, the binding signal amounted to 1.51.

Sequence ACCATC came in with a binding signal of 1.13.

On to TTCGCT, for which the binding signal worked out at 1.32.

Take TTTCTA: the binding signal was determined as 1.34.

For GCTATG, the binding signal was 1.19.

ACACCT showed a binding signal of 1.09.

In turn, CGCGGC registered a binding signal of 0.994.

In turn, CACGAC showed a binding signal of 1.33.

On to GTATCC, for which the binding signal is 1.85.

Turning to CAAGAT, the binding signal came out at 1.13.

Consider AATTTG, for which the binding signal stood at 1.33.

In the case of CACGCG, the binding signal was found to be 1.27.

Take ATCACA: the binding signal came out at 1.14.

In the case of ACGCTT, the binding signal came out at 1.39.

For the sequence TGCCAT, the binding signal was 1.07.

Sequence GCTCCC returned a binding signal of 1.34.

As to TCTTGG, the binding signal was 1.38.

Consider CAAGCA, for which the binding signal amounted to 1.15.

Regarding ATTTGC, the binding signal stood at 1.41.

For the sequence AGAACA, the binding signal worked out at 0.998.

Take TCGCCC: the binding signal stood at 1.2.

In turn, CCTTTG showed a binding signal of 1.32.

Sequence TACGTC had a binding signal of 1.24.

TCGTCA displayed a binding signal of 1.07.

On to CCTGAA, for which the binding signal worked out at 1.36.

The sequence ACACCC yielded a binding signal of 1.1.

The sequence ATTTTA had a binding signal of 1.37.

CTCATC had a binding signal of 1.26.

Turning to ACTCCA, the binding signal amounted to 1.21.

ACTGGA yielded a binding signal of 1.08.
